From the supplement of paper PMC10849652
The list shows a part of the results. Residues, ends and D or L forms follow the SMILES beside them. *: point of attachment. Cbz = O=C(OCc1ccccc1)*

Protein sequences, listed by entry. Tags and fused reporters are not part of them. Lines headed by an entry give the natural chain unless they say otherwise; changes in a name come on top.
UniProt Q8IWX8: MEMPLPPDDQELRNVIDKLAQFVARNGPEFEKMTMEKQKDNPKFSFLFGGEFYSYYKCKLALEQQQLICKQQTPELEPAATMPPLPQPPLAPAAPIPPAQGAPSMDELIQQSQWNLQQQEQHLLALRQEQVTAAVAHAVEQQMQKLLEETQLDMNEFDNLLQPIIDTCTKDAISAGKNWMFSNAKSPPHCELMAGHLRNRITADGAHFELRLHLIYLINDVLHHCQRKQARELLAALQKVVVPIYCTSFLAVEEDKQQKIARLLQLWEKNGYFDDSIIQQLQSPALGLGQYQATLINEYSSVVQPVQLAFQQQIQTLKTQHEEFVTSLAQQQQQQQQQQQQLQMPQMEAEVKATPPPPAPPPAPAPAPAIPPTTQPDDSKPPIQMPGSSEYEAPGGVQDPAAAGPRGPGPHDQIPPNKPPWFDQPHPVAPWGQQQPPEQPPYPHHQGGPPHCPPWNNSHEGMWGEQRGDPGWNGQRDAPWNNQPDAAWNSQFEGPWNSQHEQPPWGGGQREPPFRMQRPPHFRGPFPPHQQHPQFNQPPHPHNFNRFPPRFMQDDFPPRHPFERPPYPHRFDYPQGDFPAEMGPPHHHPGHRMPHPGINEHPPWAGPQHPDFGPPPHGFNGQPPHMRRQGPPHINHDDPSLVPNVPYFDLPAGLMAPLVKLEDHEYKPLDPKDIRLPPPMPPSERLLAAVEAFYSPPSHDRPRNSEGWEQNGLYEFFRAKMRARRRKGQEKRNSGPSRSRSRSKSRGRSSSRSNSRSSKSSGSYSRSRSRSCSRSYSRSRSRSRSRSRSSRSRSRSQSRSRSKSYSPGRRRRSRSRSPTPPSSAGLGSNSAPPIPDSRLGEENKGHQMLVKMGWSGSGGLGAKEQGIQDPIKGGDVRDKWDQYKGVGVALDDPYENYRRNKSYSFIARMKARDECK
UniProt Q9H444: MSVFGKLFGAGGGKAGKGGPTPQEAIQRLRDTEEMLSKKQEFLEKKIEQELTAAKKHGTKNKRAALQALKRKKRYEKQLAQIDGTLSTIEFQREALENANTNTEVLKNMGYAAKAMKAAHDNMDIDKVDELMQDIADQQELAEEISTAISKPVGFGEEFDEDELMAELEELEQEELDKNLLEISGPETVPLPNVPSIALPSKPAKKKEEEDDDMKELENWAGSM
UniProt Q8WUX2: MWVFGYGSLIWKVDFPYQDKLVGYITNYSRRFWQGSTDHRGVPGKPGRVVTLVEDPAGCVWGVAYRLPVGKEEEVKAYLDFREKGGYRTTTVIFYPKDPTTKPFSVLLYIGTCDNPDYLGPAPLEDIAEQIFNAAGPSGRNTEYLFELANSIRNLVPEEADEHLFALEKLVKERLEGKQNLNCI
UniProt Q96CF2: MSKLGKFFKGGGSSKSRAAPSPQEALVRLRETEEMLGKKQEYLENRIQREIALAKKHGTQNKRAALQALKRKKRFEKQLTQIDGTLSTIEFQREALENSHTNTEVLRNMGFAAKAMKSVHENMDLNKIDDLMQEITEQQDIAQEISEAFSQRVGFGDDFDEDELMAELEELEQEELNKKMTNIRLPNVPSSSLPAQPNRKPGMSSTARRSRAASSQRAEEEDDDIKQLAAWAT
UniProt P50750, whole entry, looked up: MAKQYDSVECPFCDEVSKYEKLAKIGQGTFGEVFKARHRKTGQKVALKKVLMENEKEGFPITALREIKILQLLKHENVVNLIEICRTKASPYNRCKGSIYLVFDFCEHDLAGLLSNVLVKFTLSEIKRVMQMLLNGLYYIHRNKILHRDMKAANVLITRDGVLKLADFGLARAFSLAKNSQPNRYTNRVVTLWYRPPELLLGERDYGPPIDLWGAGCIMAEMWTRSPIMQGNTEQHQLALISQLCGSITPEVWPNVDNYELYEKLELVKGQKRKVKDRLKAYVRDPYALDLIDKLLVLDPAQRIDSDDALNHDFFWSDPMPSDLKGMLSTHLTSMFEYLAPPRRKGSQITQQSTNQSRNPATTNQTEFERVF
UniProt Q8N4Q1: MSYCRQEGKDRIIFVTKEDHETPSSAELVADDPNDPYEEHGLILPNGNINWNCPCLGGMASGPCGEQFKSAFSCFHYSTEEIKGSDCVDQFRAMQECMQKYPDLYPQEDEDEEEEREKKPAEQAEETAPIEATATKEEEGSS
UniProt Q14004, whole entry, looked up: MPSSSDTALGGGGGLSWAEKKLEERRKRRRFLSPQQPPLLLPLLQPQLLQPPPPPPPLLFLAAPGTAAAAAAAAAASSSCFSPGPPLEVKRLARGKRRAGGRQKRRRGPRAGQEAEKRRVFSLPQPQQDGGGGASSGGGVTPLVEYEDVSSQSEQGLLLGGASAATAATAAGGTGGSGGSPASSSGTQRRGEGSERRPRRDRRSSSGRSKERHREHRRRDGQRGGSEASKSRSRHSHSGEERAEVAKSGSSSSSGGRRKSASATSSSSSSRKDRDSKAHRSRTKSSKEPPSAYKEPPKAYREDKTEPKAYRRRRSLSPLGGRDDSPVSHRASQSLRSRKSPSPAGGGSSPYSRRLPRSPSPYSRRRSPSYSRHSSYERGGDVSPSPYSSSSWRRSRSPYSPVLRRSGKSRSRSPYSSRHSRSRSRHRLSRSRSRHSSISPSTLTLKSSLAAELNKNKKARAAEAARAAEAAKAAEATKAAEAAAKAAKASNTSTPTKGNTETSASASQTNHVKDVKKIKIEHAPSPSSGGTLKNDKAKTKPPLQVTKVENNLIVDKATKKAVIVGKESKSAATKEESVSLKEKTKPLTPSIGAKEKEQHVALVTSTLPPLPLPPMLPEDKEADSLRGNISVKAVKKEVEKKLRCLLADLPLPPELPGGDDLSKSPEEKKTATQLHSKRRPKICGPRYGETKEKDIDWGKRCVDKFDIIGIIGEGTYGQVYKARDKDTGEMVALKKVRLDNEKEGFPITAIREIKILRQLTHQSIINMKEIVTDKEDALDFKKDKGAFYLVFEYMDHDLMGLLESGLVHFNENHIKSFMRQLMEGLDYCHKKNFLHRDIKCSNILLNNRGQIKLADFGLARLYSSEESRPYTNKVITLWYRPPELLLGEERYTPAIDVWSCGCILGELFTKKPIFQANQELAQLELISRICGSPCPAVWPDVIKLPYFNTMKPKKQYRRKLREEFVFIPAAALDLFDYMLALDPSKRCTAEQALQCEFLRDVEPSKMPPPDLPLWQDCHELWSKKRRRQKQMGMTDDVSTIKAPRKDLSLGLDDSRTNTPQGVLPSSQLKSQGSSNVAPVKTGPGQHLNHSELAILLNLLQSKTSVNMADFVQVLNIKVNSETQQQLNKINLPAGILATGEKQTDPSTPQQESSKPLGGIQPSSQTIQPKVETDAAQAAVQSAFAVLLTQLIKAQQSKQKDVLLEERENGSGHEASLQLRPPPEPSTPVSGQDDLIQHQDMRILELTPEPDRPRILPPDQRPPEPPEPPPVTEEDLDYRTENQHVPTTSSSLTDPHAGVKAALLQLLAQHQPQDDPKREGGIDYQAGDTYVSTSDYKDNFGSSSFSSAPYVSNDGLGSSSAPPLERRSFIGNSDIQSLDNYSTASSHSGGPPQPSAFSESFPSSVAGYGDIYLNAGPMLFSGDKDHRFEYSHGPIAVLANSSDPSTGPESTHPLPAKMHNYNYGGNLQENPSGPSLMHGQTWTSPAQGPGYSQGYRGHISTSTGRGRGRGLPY
UniProt Q96G23: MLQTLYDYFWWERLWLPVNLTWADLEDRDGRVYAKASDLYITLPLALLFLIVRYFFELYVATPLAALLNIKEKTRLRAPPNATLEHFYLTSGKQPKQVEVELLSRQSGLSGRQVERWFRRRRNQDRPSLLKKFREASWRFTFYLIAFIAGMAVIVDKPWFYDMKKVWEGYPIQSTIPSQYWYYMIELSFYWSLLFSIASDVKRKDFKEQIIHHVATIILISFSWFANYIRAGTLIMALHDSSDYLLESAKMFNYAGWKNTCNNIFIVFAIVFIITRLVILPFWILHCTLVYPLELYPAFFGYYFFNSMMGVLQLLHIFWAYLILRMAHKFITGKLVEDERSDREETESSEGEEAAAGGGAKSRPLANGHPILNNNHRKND
UniProt Q00534, whole entry, looked up: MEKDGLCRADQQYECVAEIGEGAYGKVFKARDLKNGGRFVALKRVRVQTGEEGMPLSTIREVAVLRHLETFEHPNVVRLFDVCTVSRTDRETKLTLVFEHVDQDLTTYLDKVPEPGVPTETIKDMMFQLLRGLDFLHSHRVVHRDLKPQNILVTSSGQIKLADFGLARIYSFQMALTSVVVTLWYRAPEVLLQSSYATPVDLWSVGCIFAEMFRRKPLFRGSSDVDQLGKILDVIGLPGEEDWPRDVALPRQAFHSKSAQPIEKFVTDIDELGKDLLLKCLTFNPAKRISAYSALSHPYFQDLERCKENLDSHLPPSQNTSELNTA
UniProt Q9NXV6: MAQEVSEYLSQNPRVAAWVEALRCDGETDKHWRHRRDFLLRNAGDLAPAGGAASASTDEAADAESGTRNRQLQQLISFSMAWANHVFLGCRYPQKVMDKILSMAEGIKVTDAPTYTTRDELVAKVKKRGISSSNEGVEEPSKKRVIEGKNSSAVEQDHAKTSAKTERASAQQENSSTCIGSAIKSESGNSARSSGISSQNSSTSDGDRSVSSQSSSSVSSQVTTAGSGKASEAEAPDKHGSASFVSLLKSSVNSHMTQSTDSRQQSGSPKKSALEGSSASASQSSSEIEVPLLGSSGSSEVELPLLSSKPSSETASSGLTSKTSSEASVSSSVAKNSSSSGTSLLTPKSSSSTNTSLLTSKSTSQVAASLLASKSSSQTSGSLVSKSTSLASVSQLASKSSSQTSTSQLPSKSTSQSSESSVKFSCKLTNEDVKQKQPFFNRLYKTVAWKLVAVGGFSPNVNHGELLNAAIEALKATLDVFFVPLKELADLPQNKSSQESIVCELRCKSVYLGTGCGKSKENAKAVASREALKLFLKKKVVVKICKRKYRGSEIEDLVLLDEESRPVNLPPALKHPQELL
UniProt O95319: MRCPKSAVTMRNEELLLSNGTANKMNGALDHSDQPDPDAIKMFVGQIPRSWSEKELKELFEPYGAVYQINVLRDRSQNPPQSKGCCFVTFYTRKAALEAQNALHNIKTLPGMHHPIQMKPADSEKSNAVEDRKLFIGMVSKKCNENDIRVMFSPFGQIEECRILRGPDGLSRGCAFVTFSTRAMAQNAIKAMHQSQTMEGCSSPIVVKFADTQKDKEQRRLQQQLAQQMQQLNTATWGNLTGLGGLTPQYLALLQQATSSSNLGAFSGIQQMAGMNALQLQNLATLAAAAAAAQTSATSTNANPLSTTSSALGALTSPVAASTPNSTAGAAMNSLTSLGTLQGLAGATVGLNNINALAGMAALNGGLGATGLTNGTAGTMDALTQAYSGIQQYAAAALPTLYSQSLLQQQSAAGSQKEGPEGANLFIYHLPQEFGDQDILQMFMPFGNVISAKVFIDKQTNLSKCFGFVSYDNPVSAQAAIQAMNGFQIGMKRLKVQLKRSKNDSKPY
UniProt O14757: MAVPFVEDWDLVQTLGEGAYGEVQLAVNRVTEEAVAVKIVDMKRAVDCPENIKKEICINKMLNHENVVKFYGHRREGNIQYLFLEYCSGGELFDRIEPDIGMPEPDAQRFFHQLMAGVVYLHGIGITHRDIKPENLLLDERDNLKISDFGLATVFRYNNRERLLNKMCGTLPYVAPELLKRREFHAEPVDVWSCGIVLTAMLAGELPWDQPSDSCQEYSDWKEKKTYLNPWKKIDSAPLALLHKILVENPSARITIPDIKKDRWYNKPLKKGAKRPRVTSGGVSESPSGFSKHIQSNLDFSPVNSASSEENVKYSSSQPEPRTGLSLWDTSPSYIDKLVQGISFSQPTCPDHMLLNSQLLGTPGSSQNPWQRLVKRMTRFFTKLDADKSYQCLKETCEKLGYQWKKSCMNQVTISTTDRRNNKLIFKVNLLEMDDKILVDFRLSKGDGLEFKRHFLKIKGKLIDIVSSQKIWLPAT
UniProt Q6ZMG9: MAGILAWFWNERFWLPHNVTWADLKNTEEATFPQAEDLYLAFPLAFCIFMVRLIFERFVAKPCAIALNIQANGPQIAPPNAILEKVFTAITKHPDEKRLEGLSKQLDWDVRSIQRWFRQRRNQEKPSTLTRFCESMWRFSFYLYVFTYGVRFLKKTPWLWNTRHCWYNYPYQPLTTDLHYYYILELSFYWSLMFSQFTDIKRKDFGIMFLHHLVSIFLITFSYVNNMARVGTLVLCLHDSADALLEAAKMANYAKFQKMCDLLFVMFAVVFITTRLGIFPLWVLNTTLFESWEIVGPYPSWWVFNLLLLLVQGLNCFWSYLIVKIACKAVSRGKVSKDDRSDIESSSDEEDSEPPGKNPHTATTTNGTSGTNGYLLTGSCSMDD
UniProt P11802: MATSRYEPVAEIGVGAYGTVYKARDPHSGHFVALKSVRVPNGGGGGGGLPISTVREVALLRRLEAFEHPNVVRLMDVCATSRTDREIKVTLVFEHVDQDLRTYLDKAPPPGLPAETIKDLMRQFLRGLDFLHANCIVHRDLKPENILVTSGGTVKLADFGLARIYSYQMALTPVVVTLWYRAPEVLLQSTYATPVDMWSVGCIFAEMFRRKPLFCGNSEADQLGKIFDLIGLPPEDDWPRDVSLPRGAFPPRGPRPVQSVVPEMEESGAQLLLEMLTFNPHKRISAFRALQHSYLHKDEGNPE

What was measured:
Experiment in all cases: log2 fold change, soluble protein after heating vs DMSO (PISA); higher = thermal stabilisation; K562 cells, 10 uM, 30 min; active = over 0.2 and 3.5 SD of the protein, either way, in both replicates (recomputed)
erlotinib = compound: C#Cc1cccc(Nc2ncnc3cc(OCCOC)c(OCCOC)cc23)c1 [erlotinib]
In short: (§1)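 Aliquots of K562 cells (2×10^6 cells/mL) treated with 10 μM compound for 30 min were heated for 3 min over 48°C-58°C. After pooling and extraction in PBS with 0.5% NP-40 at 4°C, soluble protein from a 21,000xg, 90 min spin was quantified by TMTpro 16plex LC-MS/MS with channel sums equalised. Thermal stability is expressed against control samples, from duplicates, as a log2 fold change.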

[1] = compound: C/C(=N\NC(=O)C1=CC(=CC=C1)S(=O)(=O)N2CCOCC2)/C3=C(C=CC(=C3)Cl)O
In short: as §1

[2] = compound: C1=CC(=C(C=C1Cl)C2=NC3=NC=CN=C3C(=N2)NC4=CC=NC=C4)F
In short: as §1

[3] = compound: C1=CC(=CC=C1C2=NC3=C(N2)C=C(C=C3)C(=O)N)OC4=CC=C(C=C4)Cl
In short: as §1

[4] = compound: C1=CC2=C(C=CC(=C2)/C=C\3/C(=O)NC(=NCC4=CC=CS4)S3)N=C1
In short: as §1

[5] = compound: C1=CC2=NC=CN=C2C=C1/C=C/3\C(=O)NC(=O)S3
In short: as §1

[6] = compound: C1=CC=C(C=C1)C2=NC(=C(N2)C3=CC=NC=C3)C4=CC(=C(C=C4)Cl)O
In short: as §1

[7] = compound: C1=CC=C2C(=C1)C3=NNC4=CC=CC(=C43)C2=O
In short: as §1

[8] = compound: C1CCN(C1)C(=O)NC2=CC=CC(=C2)NC3=NC=C(C(=N3)NCCC4=CN=CN4)Br
In short: as §1

[9] = compound: C1CN(CCC1(CC2=CC=C(C=C2)Cl)N)C3=NC=NC4=C3C=CN4
In short: as §1

IRAK-1-4 Inhibitor I = compound: C1COCCN1CCN2C3=CC=CC=C3N=C2NC(=O)C4=CC(=CC=C4)[N+](=O)[O-] [IRAK-1-4 Inhibitor I]
In short: as §1

ibrutinib = compound: C=CC(=O)N1CCC[C@@H](n2nc(-c3ccc(Oc4ccccc4)cc3)c3c(N)ncnc32)C1 [ibrutinib]
In short: as §1

[10] = compound: CC(=O)c1cnc2ccc(-c3cc(Cl)c(O)c(Cl)c3)nc2c1N[C@H]1CC[C@H](CN(C)C)CC1
In short: as §1

ralimetinib = compound: CC(C)(C)Cn1c(N)nc2ccc(-c3[nH]c(C(C)(C)C)nc3-c3ccc(F)cc3)nc21 [ralimetinib]
In short: as §1

[11] = compound: CC(C)(O)CC(=O)NCCn1ccc2ncnc(Nc3ccc(Oc4cccc(C(F)(F)F)c4)c(Cl)c3)c21
In short: as §1

[12] = compound: CC(C)C1=C2N=C(C=C(N2N=C1)NCC3=CC=CC=C3)NCCCCCCN
In short: as §1

[13] = compound: CC(C)C[C@@H](C=O)NC(=O)[C@H](CC(C)C)NC(=O)[C@H](CC(C)C)NC(=O)OCc1ccccc1
In short: as §1

pinometostat = compound: CC(C)N(C[C@H]1O[C@@H](n2cnc3c(N)ncnc32)[C@H](O)[C@@H]1O)[C@H]1C[C@@H](CCc2nc3cc(C(C)(C)C)ccc3[nH]2)C1 [pinometostat]
In short: as §1

[14] = compound: CC1=C(C2=C(C=C1)C(=O)C3=CC=CC=C3N2CCCN)C
In short: as §1

[15] = compound: CC1=C(C(CC(=O)N1)C2=CC=C(C=C2)C(F)(F)F)C(=O)NC3=C(C=C4C(=C3)C=NN4)F
In short: as §1

Target | log2 fold change (erlotinib) | log2 fold change [1] | log2 fold change [2] | log2 fold change [3] | log2 fold change [4] | log2 fold change [5] | log2 fold change [6] | log2 fold change [7] | log2 fold change [8] | log2 fold change [9] | log2 fold change (IRAK-1-4 Inhibitor I) | log2 fold change (ibrutinib) | log2 fold change [10] | log2 fold change (ralimetinib) | log2 fold change [11] | log2 fold change [12] | log2 fold change [13] | log2 fold change (pinometostat) | log2 fold change [14] | log2 fold change [15]
CHERP (UniProt Q8IWX8) | inactive: 0.083 | inactive: 0.065 | inactive: 0.014 | inactive: 0.053 | inactive: -0.03 | inactive: 0.09 | inactive: 0.026 | inactive: -0.036 | inactive: -0.084 | inactive: -0.113 | inactive: -0.091 | inactive: -0.069 | active: -0.317 | inactive: 0.013 | inactive: -0.074 | inactive: -0.097 | inactive: 0.048 | inactive: 0.021 | inactive: -0.079 | 
CHMP4B (UniProt Q9H444) | inactive: 0.018 | inactive: -0.006 | inactive: 0.024 | inactive: 0.013 | inactive: -0.014 | inactive: 0.057 | inactive: 0.043 | inactive: -0.001 | inactive: 0.083 | inactive: 0.035 | inactive: 0.068 | inactive: -0.024 | inactive: 0.015 | inactive: 0.039 | inactive: 0.015 | inactive: 0.014 | inactive: -0.003 | inactive: -0.032 | inactive: -0.011 | 
CHAC2 (UniProt Q8WUX2) | inactive: 0.025 | inactive: -0.011 | inactive: 0.001 | inactive: -0.012 | inactive: -0.003 | inactive: -0.033 | inactive: -0.018 | inactive: 0.001 | inactive: -0.025 | inactive: 0.093 | inactive: 0.038 | inactive: -0.058 | inactive: -0.009 | inactive: -0.021 | inactive: 0.085 | inactive: 0.03 | inactive: 0 | inactive: 0.01 | inactive: -0.036 | 
CHMP4C (UniProt Q96CF2) | inactive: 0.036 | inactive: 0.06 | active: 0.476 | inactive: -0.025 | inactive: 0.054 | inactive: 0.134 | inactive: -0.064 | inactive: -0.043 | inactive: 0.058 | inactive: 0.034 | inactive: 0.097 | inactive: -0.022 | inactive: -0.028 | inactive: -0.087 | inactive: -0.018 | inactive: -0.099 | inactive: 0.039 | inactive: -0.095 | inactive: -0.019 | 
CDK9 isoform 2 (UniProt P50750) | inactive: 0.043 | inactive: -0.005 | inactive: -0.174 | inactive: 0.024 | inactive: -0.084 | inactive: 0.05 | inactive: 0.059 | inactive: -0.076 | inactive: -0.001 | inactive: -0.059 | inactive: -0.02 | inactive: -0.017 | inactive: 0.233 | inactive: -0.008 | inactive: 0 | inactive: -0.113 | inactive: 0.044 | inactive: 0.157 | inactive: -0.144 | 
CHCHD4 isoform 2 (UniProt Q8N4Q1) | inactive: -0.071 | inactive: 0.102 | inactive: -0.045 | inactive: -0.036 | inactive: -0.067 | inactive: 0.012 | inactive: -0.022 | inactive: 0.053 | inactive: -0.678 | inactive: 0.177 | inactive: 0.056 | inactive: 0.003 | inactive: 0.096 | inactive: -0.003 | inactive: 0.002 | inactive: 0.075 | inactive: 0.03 | inactive: -0.024 | inactive: -0.18 | 
CDK13 (UniProt Q14004) | inactive: -0.064 | inactive: 0.039 | inactive: -0.147 | inactive: 0.028 | inactive: -0.126 | inactive: -0.014 | inactive: -0.012 | inactive: -0.212 | inactive: -0.006 | inactive: -0.129 | inactive: -0.05 | inactive: 0.024 | active: -0.52 | inactive: 0.199 | inactive: 0.031 | inactive: -0.171 | inactive: 0.081 | inactive: 0.043 | inactive: -0.017 | 
CERS2 (UniProt Q96G23) | inactive: 0.032 | inactive: 0.001 | inactive: 0.013 | inactive: 0.007 | inactive: 0.004 | inactive: 0.033 | inactive: 0.01 | inactive: -0.025 | inactive: 0.074 | inactive: 0.087 | inactive: 0.06 | inactive: -0.013 | inactive: 0.125 | inactive: -0.026 | inactive: -0.176 | active: -0.425 | inactive: 0.034 | inactive: 0.042 | inactive: -0.04 | 
CDK6 (UniProt Q00534) | inactive: -0.035 | inactive: 0 | inactive: -0.053 | inactive: 0.02 | inactive: 0.027 | inactive: 0.018 | inactive: -0.031 | inactive: 0.04 | inactive: 0.017 | inactive: -0.034 | inactive: -0.014 | inactive: 0.031 | inactive: 0.107 | inactive: 0.009 | inactive: -0.009 | inactive: -0.026 | inactive: 0.086 | inactive: 0.062 | inactive: -0.019 | 
CDKN2AIP (UniProt Q9NXV6) | inactive: 0.017 | inactive: -0.018 | inactive: 0 | inactive: 0.056 | inactive: 0.018 | inactive: 0.009 | inactive: 0.036 | inactive: 0.007 | inactive: -0.006 | inactive: -0.021 | inactive: -0.057 | inactive: 0.039 | inactive: 0.062 | inactive: 0.059 | inactive: 0.01 | inactive: 0.056 | inactive: -0.04 | inactive: 0.032 | active: 0.241 | 
CELF2 isoform 3 (UniProt O95319) | inactive: -0.042 | inactive: -0.044 | inactive: 0 | inactive: 0.045 | inactive: 0.004 | inactive: 0.047 | inactive: 0.021 | inactive: 0.064 | inactive: -0.022 | inactive: 0.086 | inactive: 0.009 | inactive: -0.022 | inactive: 0.009 | inactive: 0.055 | inactive: -0.003 | inactive: -0.015 | inactive: 0.249 | inactive: -0.047 | active: 0.418 | 
CHEK1 (UniProt O14757) | inactive: 0.03 | inactive: 0.047 | inactive: 0.029 | inactive: 0.012 | inactive: 0.246 | inactive: 0 | inactive: -0.026 | inactive: -0.099 | active: -0.303 | inactive: -0.089 | inactive: -0.018 | inactive: -0.014 | inactive: 0 | inactive: -0.076 | inactive: -0.055 | inactive: 0.003 | inactive: 0.056 | inactive: 0.018 | inactive: -0.029 | 
CHD3 isoform 3 (UniProt Q12873) | inactive: -0.052 | inactive: 0.148 | inactive: 0.005 | inactive: -0.062 | inactive: 0 | inactive: 0.034 | inactive: 0.388 | inactive: -0.123 | inactive: -0.125 | inactive: -0.093 | inactive: -0.052 | inactive: -0.1 | inactive: -0.284 | inactive: 0.36 | inactive: -0.075 | inactive: -0.319 | inactive: 0.186 | inactive: 0.071 | inactive: -0.009 | 
CEND1 (UniProt Q8N111) | inactive: -0.01 | inactive: -0.162 |  | inactive: 0.289 | inactive: -0.039 |  | inactive: -0.013 | inactive: 0.176 | inactive: -0.101 | inactive: -0.017 |  |  | inactive: -0.169 | inactive: 0.102 |  | inactive: 0.051 | inactive: -0.181 |  | inactive: 0.17 | 
CERS6 isoform 2 (UniProt Q6ZMG9) | inactive: -0.018 | inactive: 0.042 | inactive: -0.03 | inactive: 0.015 | inactive: 0.039 | inactive: 0.011 |  | inactive: -0.075 | inactive: 0.019 | inactive: 0.029 |  | inactive: 0.003 | inactive: -0.055 |  | inactive: -0.043 | inactive: -0.079 |  |  | inactive: -0.015 | inactive: -0.02
CDCA2 (UniProt Q69YH5) | active: 0.519 | inactive: -0.46 | inactive: 0.043 | inactive: -0.333 | inactive: 0.048 |  | inactive: -0.002 | inactive: -0.033 | inactive: -0.082 | inactive: 0.256 | inactive: 0.023 |  | inactive: 0.011 | inactive: 0.081 | inactive: -0.138 | inactive: -0.009 | inactive: 0.188 | inactive: -0.008 | inactive: -0.003 | 
CDK4 (UniProt P11802) | inactive: 0.075 | inactive: -0.244 | inactive: -0.008 | inactive: -0.086 | inactive: 0.329 | inactive: 0.11 | inactive: -0.067 | inactive: 0.032 |  |  | inactive: 0.001 | inactive: -0.004 | active: 0.685 | inactive: 0.054 | inactive: -0.098 | inactive: -0.333 | inactive: 0.105 | inactive: 0.081 |  | 

Look-ups from the entries so far:
log2 fold change [3], CDK13 (UniProt Q14004) reads inactive: 0.028
log2 fold change [7], CDK6 (UniProt Q00534) reads inactive: 0.04
